For at least one entry, the source does not settle the construct or the ends of the probe. Protein sequences can lack the tags named with them.
Target: T1, SA2 (STAG2), full length (human) (UniProt Q8N3U4)
T1 sequence (looked up): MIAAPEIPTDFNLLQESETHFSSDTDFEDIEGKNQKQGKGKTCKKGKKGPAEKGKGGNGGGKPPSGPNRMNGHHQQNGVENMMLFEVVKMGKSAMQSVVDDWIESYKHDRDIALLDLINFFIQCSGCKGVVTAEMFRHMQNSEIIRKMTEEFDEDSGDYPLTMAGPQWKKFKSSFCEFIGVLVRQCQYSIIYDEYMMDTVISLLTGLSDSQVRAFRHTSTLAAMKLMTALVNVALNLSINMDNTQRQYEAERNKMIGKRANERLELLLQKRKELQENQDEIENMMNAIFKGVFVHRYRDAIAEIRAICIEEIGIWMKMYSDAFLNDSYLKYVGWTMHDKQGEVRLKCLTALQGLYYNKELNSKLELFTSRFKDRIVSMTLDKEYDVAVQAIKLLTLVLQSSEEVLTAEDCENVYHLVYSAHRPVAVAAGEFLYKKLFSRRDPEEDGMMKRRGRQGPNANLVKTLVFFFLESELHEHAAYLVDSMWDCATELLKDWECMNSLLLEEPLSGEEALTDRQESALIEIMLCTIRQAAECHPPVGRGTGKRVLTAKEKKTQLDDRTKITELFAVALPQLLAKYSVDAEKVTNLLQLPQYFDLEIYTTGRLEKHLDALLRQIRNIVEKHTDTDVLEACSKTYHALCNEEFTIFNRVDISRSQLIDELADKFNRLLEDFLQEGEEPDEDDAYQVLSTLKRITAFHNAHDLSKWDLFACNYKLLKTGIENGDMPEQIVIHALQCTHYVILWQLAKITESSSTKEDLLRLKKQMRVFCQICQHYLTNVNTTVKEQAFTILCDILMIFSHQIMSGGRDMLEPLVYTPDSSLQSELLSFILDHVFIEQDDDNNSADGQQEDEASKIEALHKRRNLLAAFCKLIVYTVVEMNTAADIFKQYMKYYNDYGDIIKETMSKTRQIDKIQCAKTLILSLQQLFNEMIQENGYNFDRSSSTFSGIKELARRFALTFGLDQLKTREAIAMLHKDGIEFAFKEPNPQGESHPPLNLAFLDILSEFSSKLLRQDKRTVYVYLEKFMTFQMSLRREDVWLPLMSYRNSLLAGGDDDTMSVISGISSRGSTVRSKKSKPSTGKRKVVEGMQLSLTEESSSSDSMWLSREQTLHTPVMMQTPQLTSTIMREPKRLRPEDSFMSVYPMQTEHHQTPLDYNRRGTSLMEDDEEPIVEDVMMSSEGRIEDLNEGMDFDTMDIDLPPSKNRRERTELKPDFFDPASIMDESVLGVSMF
Experiment: fluorescence anisotropy
Conditions: Anisotropy: 20 mM Hepes pH 7.5, 0.1 mM MgCl2, 0.5 mM DTT, 100 mM KCl, 1 nM DNA, recombinant protein, residues 1-1231, protein details: 6xHis, label: 5' Alexa 488 on strand 1

| Sequence | Kd (folded or branched DNA) [nM] | Kd [nM] |
| --- | --- | --- |
| TGTCGCATAGTGTAGTCGGTCTTGTTCGGTCATAGCTCATCGTGG / CCACGATGAGCTATGACCGAACAA / ACTCTGTTCATCGTCATCTGCGACCGACTACACTATGCGACA [flap] | 104 | – |
| TGTCGCATAGTGTAGTCGGTCTTGTTCGGTCATAGCTCATCGTGG / CCACGATGAGCTATGACCGAACAA [overhang] | – | 56.4 |
| TGTCGCATAGTGTAGTCGGTCTTGTTCGGTCATAGCTCATCGTGG / CCACGATGAGCTATGACCGAATGCCGAATTCTACCAGTGCCAGTG [fork] | – | 58.4 |
